Paper PMC6558007
Results are given in words; binding and its absence hold for the method and conditions named. In cells and extracts the contact can be indirect. These calls come from enrichment with a bait or labelling near it, and not all partners need be listed.

Target: HaGland5-FLAG (Heterodera avenae)
Experiment: affinity purification with mass spectrometry; whole protein of 14-day transgenic A. thaliana seedlings expressing HaGland5-FLAG (Col-0 as control); complexes captured by FLAG antibody; Q Exactive

B1: AtEMB3003 protein from A. thaliana (endogenous) (protein, UniProt Q9C8P0 32-465)
chain: IIPIQAKIREIFMPALSSTMTEGKIVSWVKSEGDKLNKGESVVVVESDKADMDVETFYDGYLAAIMVEEGGVAPVGSAIALLAETEDEIADAKAKASGGGGGGDSKAPPASPPTAAVEAPVSVEKKVAAAPVSIKAVAASAVHPASEGGKRIVASPYAKKLAKELKVELAGLVGSGPMGRIVAKDVEAVAAGGGVQAAVAVKEVVAAPGVELGSVVPFTTMQGAVSRNMVESLGVPTFRVGYTISTDALDALYKKIKSKGVTMTALLAKATALALAKHPVVNSSCRDGNSFVYNSSINVAVAVAIDGGLITPVLQNADKVDIYSLSRKWKELVDKARAKQLQPQEYNTGTFTLSNLGMFGVDRFDAILPPGTGAIMAVGASQPSVVATKDGRIGMKNQMQVNVTADHRVIYGADLAQFLQTLASIIEDPKDLTF
B1 was tested, and the binding was “binds”.
